Publication PMC4403447
These are yes or no findings as the source states them, for the method shown. Some binding calls cover weakened binding; strength is not graded here.

Amino acid sequences for entries named in this document (tags omitted).
UniProt P10591: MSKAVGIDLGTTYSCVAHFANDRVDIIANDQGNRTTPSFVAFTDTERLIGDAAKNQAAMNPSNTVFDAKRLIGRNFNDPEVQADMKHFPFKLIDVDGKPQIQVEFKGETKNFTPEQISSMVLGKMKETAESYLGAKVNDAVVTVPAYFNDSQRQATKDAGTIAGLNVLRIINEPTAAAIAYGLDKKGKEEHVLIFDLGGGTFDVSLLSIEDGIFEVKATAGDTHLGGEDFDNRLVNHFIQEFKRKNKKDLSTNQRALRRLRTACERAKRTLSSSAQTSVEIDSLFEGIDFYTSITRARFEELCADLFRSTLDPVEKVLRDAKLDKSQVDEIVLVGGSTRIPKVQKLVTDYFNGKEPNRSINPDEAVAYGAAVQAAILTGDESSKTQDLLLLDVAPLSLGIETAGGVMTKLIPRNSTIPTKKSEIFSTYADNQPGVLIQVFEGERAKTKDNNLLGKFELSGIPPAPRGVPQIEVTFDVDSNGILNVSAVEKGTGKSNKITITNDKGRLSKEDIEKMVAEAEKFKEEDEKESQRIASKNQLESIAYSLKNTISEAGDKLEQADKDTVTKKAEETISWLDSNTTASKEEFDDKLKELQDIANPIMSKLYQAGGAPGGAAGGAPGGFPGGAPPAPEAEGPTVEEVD

Assays:
[1] = molecular target: yHsp70 (Ssa1) (yeast) (UniProt P10591); test: SAXS; mixtures of a Sti1 variant and Hsp70 at 1:1 and 1:2; solute 1 to 10 mg/ml; in-house SAXSess mc2; masses from I(0); both purified
[2] = molecular target: yHsp70 (Ssa1) (yeast) (UniProt P10591); test: SPR; Hsp70 amine-coupled to a CM5 chip, Sti1 variants as analyte; 40 mM Hepes pH 7.5, 20 mM KCl, 5 mM MgCl2, 0.005% Tween; 10 μl/min; 20 °C; Langmuir isotherm; affinities shown normalized to wild-type Sti1; both purified
[3] = molecular target: Sti1 (stress-inducible protein 1), wild type (S. cerevisiae) (UniProt P15705); test: AUC; sedimentation of Sti1 or Sti1 Δlinker alone, absorbance optics at 280 nm, c(S) module of UltraScan; both purified

Row | binding [1] | binding [2] | binding [3] | Binder
1 | binds | binds | – | Sti1 TPR2B (domain or fragment, UniProt P15705 395-518) KAEEARLEGKEYFTKSDWPNAVKAYTEMIKRAPEDARGYSNRAAALAKLMSFPEAIADCNKAIEKDPNFVRAYIRKATAQIAVKEYASALETLDAARTKDAEVNNGSSAREIDQLYYKASQQRF
2 | – | – | no binding | Sti1 (stress-inducible protein 1), wild type (protein, UniProt P15705 1-589) MSLTADEYKQQGNAAFTAKDYDKAIELFTKAIEVSETPNHVLYSNRSACYTSLKKFSDALNDANECVKINPSWSKGYNRLGAAHLGLGDLDEAESNYKKALELDASNKAAKEGLDQVHRTQQARQAQPDLGLTQLFADPNLIENLKKNPKTSEMMKDPQLVAKLIGYKQNPQAIGQDLFTDPRLMTIMATLMGVDLNMDDINQSNSMPKEPETSKSTEQKKDAEPQSDSTTSKENSSKAPQKEESKESEPMEVDEDDSKIEADKEKAEGNKFYKARQFDEAIEHYNKAWELHKDITYLNNRAAAEYEKGEYETAISTLNDAVEQGREMRADYKVISKSFARIGNAYHKLGDLKKTIEYYQKSLTEHRTADILTKLRNAEKELKKAEAEAYVNPEKAEEARLEGKEYFTKSDWPNAVKAYTEMIKRAPEDARGYSNRAAALAKLMSFPEAIADCNKAIEKDPNFVRAYIRKATAQIAVKEYASALETLDAARTKDAEVNNGSSAREIDQLYYKASQQRFQPGTSNETPEETYQRAMKDPEVAAIMQDPVMQSILQQAQQNPAALQEHMKNPEVFKKIQTLIAAGIIRTGR
